Consider two molecules from doi:10.1101/2024.05.06.592684.

In experiment [1] the target is T1, HY5 fused with C-terminal part of YFP (HY5-cYFP) (Arabidopsis thaliana) (UniProt O24646).
T1 sequence: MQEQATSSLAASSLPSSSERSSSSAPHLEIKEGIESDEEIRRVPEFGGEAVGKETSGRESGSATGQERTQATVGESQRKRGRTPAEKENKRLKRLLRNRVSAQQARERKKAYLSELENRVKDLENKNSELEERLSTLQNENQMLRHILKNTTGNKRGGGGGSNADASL
Put plainly: split reporter.

Experiment [2] has as its target T2, HY5 fused to the binding domain of GAL4 (Arabidopsis thaliana) (UniProt O24646).
T2 sequence: T1 sequence
Nature of the experiment: two-hybrid.

These are yes or no findings as the source states them, for the method shown. For some assays here: In cells and extracts the contact can be indirect. Some binding calls cover weakened binding; strength is not graded here. Sequences can lack the tags named with a protein.

On to “PYE fused to the N-terminal part of YFP (nYFP-PYE) (from UniProt Q9SN74 1-240)”, for which the binding result in experiment [1] is given as “binds”.

B1: PYE fused to the activation domain of GAL4 (protein, UniProt Q9SN74 1-240)
chain: MVSKTPSTSSDEANATADERCRKGKVPKRINKAVRERLKREHLNELFIELADTLELNQQNSGKASILCEATRFLKDVFGQIESLRKEHASLLSESSYVTTEKNELKEETSVLETEISKLQNEIEARANQSKPDLNTSPAPEYHHHHYQQQHPERVSQFPGLPIFQGPGFQQSATTLHPPATVLVLPIQPDPQTQDISEMTQAQQPLMFNSSNVSKPCPRYASAADSWSSRLLGERLKASE
For the molecule B1, the binding result in experiment [2] was “binds”.
